Assay results taken from PubChem BioAssay AID2685 (National Center for Advancing Translational Sciences (NCATS), 2010).
The other results are listed elsewhere or left out. The main result of the screen is listed elsewhere. These columns were measured beside it and carry no call. The list favours compounds with an active or inconclusive main result. The note in brackets gives the kind of curve behind each potency; many fits are weak.

Assay: qHTS Assay for Lipid Storage Modulators in Drosophila S3 Cells;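 for cell number change: cells counted by Cell Tracker Red CMTPX staining in the red channel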
Conditions: BODIPY lipid droplet fluorescence, 18-24 h; for cell number change: measured here: cell count max response, cells fed with added oleic acid
Summary of the method: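 Laser-scanning cytometry quantifies lipid droplet accumulation (500–530 nm total intensity; droplet/cell object ratio) in oleic acid-fed (400 uM added) Drosophila S3 cells treated with a concentration series. 20 uM Triacsin C defined 100% inhibition.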

[1] = measured here: cell number channel AC50, cells fed with added oleic acid
[2] = measured here: lipid fluorescence (Fed channel) AC50, cells fed with added oleic acid

CC(=O)Nc1ccc(S(=O)(=O)Nc2nc3ccccc3nc2-n2ccc(=NC(=O)c3ccc(F)cc3)cc2)cc1
AC50 [1]: 0.58 µM [rising, single point]

CCOC(=O)c1ccsc1NC(=O)CCS(=O)(=O)c1ccccc1
cell number change: -42.1%
AC50 [1]: 14.6 µM [falling, single point]
AC50 [2]: 29.1 µM [falling, single point]

CC(C)COP(=O)(c1ccc(N(C)C)cc1)C(O)c1ccccc1F (stereo not drawn)
cell number change: 30.3%
AC50 [2]: 6.51 µM [rising, full curve]

Cc1ccnc(N2C(=O)CSC2c2ccc(Cl)cc2)c1 (stereo not drawn)
cell number change: 2.22%
AC50 [1]: 6.51 µM [rising, single point]

COc1ccc(Cc2nnc(Nc3ccc(Cl)cc3)[nH]c2=O)cc1
cell number change: 20%
AC50 [1]: 0.058 µM [rising, full curve, poor fit]
AC50 [2]: 0.82 µM [rising, full curve, poor fit]

CNC(=O)CSCCn1c(SCC(=O)NC)nc2ccccc2c1=O
cell number change: 3.01%

CC(=O)c1cccc(NC(=O)c2ccc(NC(=O)CC3SC(N4CCCCC4)=NC3=O)cc2)c1 (stereo not drawn)
cell number change: 2.47%

CCN(C(=O)COC(=O)/C=C/c1ccccc1Cl)c1c(N)n(Cc2ccccc2)c(=O)[nH]c1=O
cell number change: 111%
AC50 [1]: 16.4 µM [rising, single point]

COc1ccc2nc(C3CCCCC3)nc(C3CCCCC3)c2c1
cell number change: 3.83%
AC50 [2]: 0.731 µM [rising, full curve, poor fit]

CCOC(=O)c1cc(=O)cc(C(=O)OCC)o1
cell number change: -33.8%
AC50 [1]: 6.51 µM [falling, partial curve]
AC50 [2]: 6.51 µM [falling, partial curve]

Cc1ccc(S(=O)(=O)NC2=NCN(CCN3CCOCC3)CN2)cc1
cell number change: -13%
AC50 [2]: 2.59 µM [falling, partial curve, poor fit]

O=C(OCC(=O)N1CCN(c2ccccc2)CC1)c1ccc2ncsc2c1
cell number change: -1.44%
AC50 [2]: 4.61 µM [rising, single point]

CC(C(=O)Nc1ccc(F)cc1Cl)N1CCN(S(=O)(=O)c2cccs2)CC1 (stereo not drawn)
cell number change: 34.8%
AC50 [1]: 23.1 µM [rising, single point]
AC50 [2]: 9.2 µM [rising, partial curve, poor fit]

NC(=O)C1CCN(C(=O)CSc2ncccn2)CC1
cell number change: 13.7%
AC50 [1]: 0.326 µM [rising, full curve, poor fit]

Cn1nnnc1SCC(=O)N(C1CCCCC1)C1CCS(=O)(=O)C1 (stereo not drawn)
cell number change: -8.29%

CCC1(c2ccccc2)ON(c2c(Br)cccc2Br)C1=O (stereo not drawn)
cell number change: -53.7%
AC50 [1]: 13 µM [falling, partial curve]
AC50 [2]: 11.6 µM [falling, partial curve]

Nc1nnc(SCC(=O)Nc2nccs2)s1
cell number change: -19.4%
AC50 [2]: 29.1 µM [rising, partial curve, poor fit]

O=C(Cn1c(=O)n(Cc2ccco2)c(=O)c2c3c(sc21)CCCC3)Nc1ccccc1
AC50 [1]: 0.231 µM [rising, full curve, poor fit]
AC50 [2]: 0.58 µM [rising, single point]

CN(c1ccccc1)c1nc(N)c([N+](=O)[O-])c(NCc2ccccc2)n1
cell number change: 14.2%
AC50 [1]: 0.731 µM [rising, full curve, poor fit]
AC50 [2]: 0.092 µM [rising, full curve, poor fit]

O=C(Nc1nnc(SCc2cccnc2)s1)C1CC(=O)N(c2ccc(F)cc2)C1 (stereo not drawn)
cell number change: 15%
AC50 [2]: 18.4 µM [rising, single point]

O=c1c(-c2ccc(O)cc2)coc2c(C3O[C@H](CO)[C@@H](O)[C@H](O)[C@H]3O)c(O)ccc12 (stereo partly drawn)
cell number change: -29.3%
AC50 [1]: 0.00517 µM [falling, full curve, poor fit]
AC50 [2]: 7.31 µM [falling, partial curve, poor fit]

COc1cc(C(=O)NCC(=O)NCCCSc2ccccc2)cc(OC)c1OC
cell number change: 1.69%
AC50 [2]: 0.00461 µM [rising, full curve, poor fit]

O=C(/C=C/c1ccccc1)N1CCN(c2cccc(Cl)n2)CC1
cell number change: 18.8%
AC50 [2]: 29.1 µM [rising, single point]

O=C(Cc1cccc2ccccc12)Nc1ccc(O)cc1C(=O)O
cell number change: 4.97%
AC50 [2]: 0.651 µM [rising, partial curve, poor fit]

Oc1ccc(-c2csc(Nc3ncccn3)n2)c(O)c1
cell number change: -14.3%
AC50 [2]: 14.6 µM [falling, single point]

COc1ccc(OC)c(-n2nnnc2SCC(=O)NCCc2ccccc2)c1
cell number change: -7.08%
AC50 [1]: 0.731 µM [falling, single point]
AC50 [2]: 29.1 µM [rising, single point]

Cc1nn(C)c(C)c1S(=O)(=O)N1CCCC(C(=O)N2CCN(c3ccccc3)CC2)C1 (stereo not drawn)
cell number change: -34.8%
AC50 [1]: 8.2 µM [falling, full curve, poor fit]
AC50 [2]: 0.00411 µM [rising, full curve, poor fit]

COCCn1c(=O)[nH]c(=O)c2c1nc(-c1cc(Br)c3c(c1)OCO3)n2Cc1ccccc1
cell number change: 21.8%

CC(C)CC1Nc2ncnc(N3CCCCC3)c2N(Cc2ccccc2)C1=O (stereo not drawn)
cell number change: -10.5%

COc1ccc(S(=O)(=O)NC2CC(=O)N(c3ccc(C)c(C)c3)C2)cc1 (stereo not drawn)
AC50 [1]: 2.31 µM [rising, single point]

COc1cccc(OC)c1C(=O)Nc1ccc(Cc2ccncc2)cc1
cell number change: 14.7%
AC50 [2]: 1.64 µM [rising, partial curve, poor fit]

CCOC(=O)/C=C/C(=O)OCC(=O)N1CCN(C(=O)c2ccco2)CC1
cell number change: -48.9%
AC50 [1]: 13 µM [falling, partial curve]
AC50 [2]: 5.8 µM [falling, full curve]

CCOC(=O)CSC1=C(C#N)C(c2ccco2)C(C(=O)OCc2ccccc2)=C(C)N1 (stereo not drawn)
cell number change: -23.5%
AC50 [2]: 29.1 µM [falling, partial curve, poor fit]

CC(=O)c1c(COC(=O)c2cccnc2)nc2ccccc2[n+]1[O-]
cell number change: 12.6%
AC50 [2]: 0.00461 µM [rising, full curve, poor fit]

O=C(CSC(=S)N1CCN(c2ccccc2)CC1)Nc1nc(-c2ccccc2)c(-c2ccccc2)o1
cell number change: -33.3%
AC50 [1]: 32.6 µM [falling, single point]
AC50 [2]: 0.231 µM [falling, full curve]

O=C(O)CNC(=O)c1ccc(N2CCOCC2)cc1[N+](=O)[O-]
cell number change: -48.8%
AC50 [1]: 4.11 µM [falling, full curve]

CCN(C(=O)COc1ccc(C)nc1[N+](=O)[O-])C1CCS(=O)(=O)C1 (stereo not drawn)
cell number change: 54.3%
AC50 [1]: 29.1 µM [rising, partial curve, poor fit]
AC50 [2]: 23.1 µM [rising, single point]

COc1cccc(CNS(=O)(=O)c2ccc3c(c2)oc(=O)n3C)c1
cell number change: 20.5%

O=C(NC1CCSc2ccccc21)c1ccc(Cl)c(S(=O)(=O)N2CCOCC2)c1 (stereo not drawn)
cell number change: 29.9%
AC50 [2]: 4.61 µM [rising, single point]

NC(=O)c1ccccc1NC(=O)CN1CCN(Cc2ccc(Cl)cc2Cl)CC1
cell number change: 16.4%
AC50 [1]: 4.61 µM [rising, single point]

Cc1nnc(SCc2nnc(-c3ccc(Cl)cc3)o2)n1-c1ccccc1
cell number change: -19.9%

C/C(=N\NC(=O)C(=O)Nc1ccc(C)cc1)c1ccncc1
cell number change: 5.04%

O=C(CSc1nc(NS(=O)(=O)c2ccccc2)cc(=O)[nH]1)Nc1ccccc1C(F)(F)F
cell number change: 36.3%
AC50 [1]: 0.58 µM [rising, full curve, poor fit]

OCC1(CCOc2ccccc2)CCN(Cc2cc(Cl)ccc2O)CC1
cell number change: 6.99%

Cc1ncoc1C(=O)Nc1ccc(Oc2ccccc2)cc1
AC50 [2]: 0.517 µM [falling, single point]

COc1ccc(S(=O)(=O)N2CCN(C(=O)CC3CC4CCC3C4)CC2)cc1 (stereo not drawn)
cell number change: -3.86%
AC50 [1]: 0.82 µM [falling, single point]
AC50 [2]: 0.00461 µM [falling, full curve, poor fit]

COc1ccc(CSC2=CS(=O)(=O)c3ccccc3N2)cc1
cell number change: -44.1%

CC1(C)C(N(O)C(=O)Nc2ccc(Cl)cc2)N(c2ccc(Cl)cc2)C(=O)N1CC(=O)NN (stereo not drawn)
cell number change: -18.7%
AC50 [1]: 1.16 µM [falling, partial curve, poor fit]

Cc1ccc(C(=O)O/N=C/c2c(C)nn(C)c2Cl)cc1
cell number change: -35%

CCOC(=O)c1sc(/N=C/Nc2nc(C)c(C(=O)OCC)s2)nc1C
cell number change: 28.6%
AC50 [2]: 0.116 µM [falling, full curve, poor fit]

C[C@@]12CCC3[C@@](CCC4[C@@]3(C)CCC[C@@]4(C)C(=O)N3CCCCC3)(CC1=O)C2 (stereo partly drawn)
cell number change: 18.2%
AC50 [2]: 25.9 µM [rising, single point]

C/C(=N/NC(=O)C1CCCN1C(=O)c1ccc([N+](=O)[O-])cc1)c1ccc(Br)cc1 (stereo not drawn)
cell number change: -23.2%
AC50 [2]: 3.66 µM [rising, partial curve]

CC(=O)CCN1CCOCC1
cell number change: -103%

CCOc1ccc(S(=O)(=O)Nc2cccc(C(=O)NCC(c3ccco3)N3CCCC3)c2)cc1 (stereo not drawn)
cell number change: -5.57%

COc1ccc(C2C(C(C)=O)=C(C)Nc3ncnn32)cc1 (stereo not drawn)
cell number change: 39.9%
AC50 [2]: 29.1 µM [rising, single point]

CC1(C)OC(c2ccccc2)=C/C(=C/C=C2C(=O)c3ccccc3C2=O)O1
cell number change: -40.5%
AC50 [1]: 1.46 µM [falling, full curve]
AC50 [2]: 1.03 µM [falling, full curve]

CC(Oc1ccccc1)c1ccnc(N)n1 (stereo not drawn)
cell number change: -6.43%
AC50 [1]: 0.116 µM [falling, full curve, poor fit]
AC50 [2]: 0.13 µM [falling, full curve, poor fit]
